Assay results published in US12404241B2 (Celgene Corporation, priority 2018, dated 2025).
The match of structure and compound is tentative.

Amino acid sequences for entries named in this document (tags omitted).
UniProt P10275, whole entry: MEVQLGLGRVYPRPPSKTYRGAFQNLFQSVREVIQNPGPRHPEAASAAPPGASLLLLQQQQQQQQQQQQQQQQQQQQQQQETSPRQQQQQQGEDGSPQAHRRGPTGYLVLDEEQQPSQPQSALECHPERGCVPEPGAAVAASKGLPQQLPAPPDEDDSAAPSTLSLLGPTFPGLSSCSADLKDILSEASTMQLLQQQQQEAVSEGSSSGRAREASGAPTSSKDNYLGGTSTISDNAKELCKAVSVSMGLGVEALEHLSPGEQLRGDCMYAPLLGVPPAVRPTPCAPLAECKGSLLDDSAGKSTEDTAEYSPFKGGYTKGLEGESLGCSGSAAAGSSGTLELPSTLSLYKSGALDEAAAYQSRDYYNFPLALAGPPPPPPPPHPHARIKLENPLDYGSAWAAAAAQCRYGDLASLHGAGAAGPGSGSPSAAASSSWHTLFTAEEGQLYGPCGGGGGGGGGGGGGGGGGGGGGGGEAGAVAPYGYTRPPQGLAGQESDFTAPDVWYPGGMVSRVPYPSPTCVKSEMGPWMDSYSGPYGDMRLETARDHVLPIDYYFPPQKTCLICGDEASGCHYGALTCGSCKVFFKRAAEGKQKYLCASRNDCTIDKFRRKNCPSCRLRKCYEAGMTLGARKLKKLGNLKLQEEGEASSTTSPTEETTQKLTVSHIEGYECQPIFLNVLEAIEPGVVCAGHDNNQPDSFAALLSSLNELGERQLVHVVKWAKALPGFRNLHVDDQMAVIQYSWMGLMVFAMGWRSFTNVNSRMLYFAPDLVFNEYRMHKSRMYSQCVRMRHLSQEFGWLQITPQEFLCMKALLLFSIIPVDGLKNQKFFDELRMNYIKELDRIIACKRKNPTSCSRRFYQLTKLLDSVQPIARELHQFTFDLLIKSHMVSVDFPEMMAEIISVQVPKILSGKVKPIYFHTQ

Target: AR (Homo sapiens, UniProt P10275)
Assay: VCAP AR Degradation Assay
Experimental: VCAP AR Degradation Assay. Test compounds were pre-dispensed into a Corning CellBind 96-well clear bottom plate (Cat #3300) using an acoustic dispenser to make a 10-point concentration series at 1:3 dilution for each compound. The final top concentration of each compound was 5 μM. DMSO at a final concentration of 0.1% was used as a control. VCaP cells cultured in DMEM with 8% fetal bovine serum (FBS) were seeded at 50K cells per well in a 200 μL volume into the compound plate and incubated at 37° C. in a CO2 incubator for 24 h. The medium was carefully removed from the cells and the plate was placed on ice. […] AR levels in compound-treated wells were normalized to that of DMSO control and expressed as percent of control (PoC) (y). […]
[formula] • A=YMin (lowest AR level normalized to DMSO control in response to compound treatment, as determined by curve fit) • B=YMax (maximum AR level as determined by curve fit) • C=EC50 • D=Hill Slope • x=compound concentration • EC50=the concentration of compound when y=(YMax−YMin)/2 • DC50=the concentration of the compound when y=50% of DMSO control (50% AR degradation) • y=AR protein level normalized to DMSO control
The lowest measured AR level normalized to DMSO control in response to compound treatment, termed Y value, was used to characterize the compound-mediated AR degradation efficiency.

Structure (SMILES): CCc1cc(N2C(=O)N(c3ccc(C#N)c(C(F)(F)F)c3)C(=O)C2(C)C)ccc1OCCN1CCN(CC(=O)Nc2cccc(NC3CCC(=O)NC3=O)c2)CC1 (centres unmarked)
- Y (AR degradation efficiency, % of DMSO control) (class symbols *, **): ** (25%<Y<=35%)
- DC50 (class symbols A-C): < 100 nM
